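Whole-cell assay for inhibitors of Mycobacterium tuberculosis growth, labelled Cornell in the record; the read-out is not stated. The concentration is filed as 10 mM, unlikely as a test dose, so the dose is not known. The record gives no direction; compounds strong in two other growth screens of this library score well above the rest, so higher reads as stronger inhibition. Of about 53,000 compounds tested this way, about 900 (1.7%) reached 50% or more in at least one test.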

Values are the deposited “Percent Effect”, in %. How 0% and 100% were set is not recorded. Most values in the screen are low, and negative values occur. The compounds are a random part of those screened.

For COc1ccc(CN2CCCn3nnc(COCC4CC4)c3C2)cc1.O=C(O)C(F)(F)F the result was 31.17%.
For [H][C@]12CCN(C(=O)c3ccno3)C[C@@]1([H])OCCN(C1CCOCC1)C2 the result was 0.7604%.
For Cc1nccn1C1CCCN(C(=O)c2ccc(N(C)C)nn2)C1 (stereo not shown) the result was 3.941%.
For CC(C)N(Cc1ccccn1)C(=O)CCOc1cccc(F)c1 the result was -1.672%.
For CN(Cc1ccccc1)c1ncccc1CNC1CCCC1 the result was -0.1263%.
For NC(=O)NC(=O)CCN1CCC(C(=O)c2cc(F)ccc2F)CC1 the result was 11.7%.
For Cc1noc(C2CCCN(CC(=O)N3CCc4ccccc4C3)C2)n1 (stereo not shown) the result was 18.8%.
For CC(C)CN(C)c1ccc(C(=O)N2CCCC2c2cnn(C)c2)cn1 (stereo not shown) the result was 0.7366%.
For CN(Cc1ncnn1C1Cc2ccccc2C1)C1CCS(=O)(=O)C1 (stereo not shown) the result was 18.84%.
For CCc1nc(CCNC(=O)Nc2ccc(C(=O)NC)cc2)cs1 the result was 2.594%.
For CCc1cc(N2CCC(NCCc3nc(C)c(C)s3)CC2)nc(C)n1 the result was -4.396%.
For COc1cc(N2CCC3(CCN(C(=O)c4cccnc4)CC3)C2)ncn1.O=C(O)C(F)(F)F the result was 9.521%.
For CCC(NC(=O)c1ccc(OC)nn1)c1nc(C(F)(F)F)cs1 (stereo not shown) the result was 22.42%.
For COc1ccc2[nH]cc(C(=O)N3C[C@@H](O)[C@H](NS(C)(=O)=O)C3)c2c1 the result was 1.941%.
For COCCNc1ccc(CNC(=O)C2COc3ccccc32)cc1 (stereo not shown) the result was -2.585%.
For Cn1ccc(CNC(=O)N2CCC(C3(C)OCCO3)CC2)c1 the result was 49.21%.
For NC(=O)Nc1cccc(Oc2ccccn2)c1 the result was 3.298%.
For O=C(CSc1ccccn1)N1CCC(OCc2cccnc2)CC1 the result was 13.9%.
For CN(C)C(=O)CC1CC2(CCN(c3ncccn3)CC2)c2ccccc21.O=C(O)C(F)(F)F (stereo not shown) the result was 27.86%.
For NC(=O)c1c(-c2ccc(Cl)cc2Cl)csc1NC(=O)CCC(=O)O the result was 0.3984%.
For Cc1ccc(C)c(NC(=O)Cc2c(C)nc3c(c2C)c(=O)[nH]n3C)c1 the result was 5.333%.
For NC(=O)c1ccc(CN2CCCC(N3CCCC3)C2)cc1 (stereo not shown) the result was -3.708%.
For O=C(CN1CCOCC1)Nc1cc(C(F)(F)F)ccc1-n1cccc1 the result was 12.79%.
For O=C(Cc1ccccn1)N1CC[C@]2(C[C@@H](Oc3ncccc3F)CO2)C1.O=C(O)C(F)(F)F.O=C(O)C(F)(F)F the result was -6.732%.
For Cc1cnn(CC2CCCN2Cc2coc(-c3ccccc3)n2)c1 (stereo not shown) the result was 3.264%.
For O=C(O)C(F)(F)F.[H][C@@]12CN(Cc3[nH]cnc3C)C[C@]1([H])OCCN2c1ncccn1 the result was 14.15%.
For CCS(=O)(=O)CC(C)N(C)C(=O)COc1ccccc1C#N (stereo not shown) the result was -23.23%.
For CN(C)c1nc2c(c(N(C)Cc3n[nH]c4c3CCCC4)n1)CCNCC2 the result was 27.89%.

The first 2 entries again:

{"compound": "COc1ccc(CN2CCCn3nnc(COCC4CC4)c3C2)cc1.O=C(O)C(F)(F)F", "Percent Effect": 31.17}
{"compound": "[H][C@]12CCN(C(=O)c3ccno3)C[C@@]1([H])OCCN(C1CCOCC1)C2", "Percent Effect": 0.7604}

From ChEMBL document CHEMBL3988442, “University of Dundee, Small-Polar-MMV Screening Library” (2021).